{"source": "patent US11976047B1", "about": "“4,5-bis(4-bromo-phenyl)-1-hexyl-2-(2- methoxyphenyl)-1H-imidazole as an antimicrobial compound” (KING FAISAL UNIVERSITY, priority 2023, dated 2024)", "assay_type_in_all_cases": "cell-based", "key": {"[1]": {"test_system": "Staphylococcus aureus", "experiment": "Antimicrobial screening by agar dilution, Staphylococcus aureus", "protocol": "(§1) The antimicrobial properties of the 4,5-bis(4-bromo-phenyl)-1-hexyl-2-(2-methoxyphenyl)-1H-imidazole was studied by the method of agar dilution. Test solutions of each compound was prepared in concentration of 1% using dimethylformamide as a solvent then they are diluted in physiological solution to obtain the final experimental dilutions 1:100, 1:200, 1:400, 1:800. The effect of these substances are compared with furacillin in a controlled study. The testing microbes used were gram positive bacteria Staphylococcus aureus, gram negative bacteria Pseudomonas aeruginosa and Escherichia coli and Candida albicans fungi were taken. The experiments used for this survey were meat-pentonlu agar (EPA) for cultivation of bacteria and Saburo environment for fungi. Each experiment used 1 ml of test solution on each plate 500 min. Add 2 drops of emulsified with microbes feel. All experimental samples were taken from the agar after 10, 20, 40, 60 minutes in the environment on the basis of Patrk planted. Bacteria were cultivated at a temperature of 37° C. for 1 day and the mushroom was kept in a thermostat for 2 hours at a temperature of 28° C. in the. Then results were checked."}, "[2]": {"test_system": "Pseudomonas aeruginosa", "experiment": "Antimicrobial screening by agar dilution, Pseudomonas aeruginosa", "protocol": "as §1"}, "[3]": {"test_system": "Candida albicans", "experiment": "Antimicrobial (antifungal) screening by agar dilution, Candida albicans", "protocol": "as §1"}, "[4]": {"test_system": "Escherichia coli", "experiment": "Antimicrobial screening by agar dilution, Escherichia coli", "protocol": "as §1"}, "[5]": {"settings": "dilution rate 1:100, exposure time 10 min"}, "[6]": {"settings": "dilution rate 1:100, exposure time 20 min"}, "[7]": {"settings": "dilution rate 1:100, exposure time 40 min"}, "[8]": {"settings": "dilution rate 1:100, exposure time 60 min"}, "[9]": {"settings": "dilution rate 1:200, exposure time 10 min"}, "[10]": {"settings": "dilution rate 1:200, exposure time 20 min"}, "[11]": {"settings": "dilution rate 1:200, exposure time 40 min"}, "[12]": {"settings": "dilution rate 1:200, exposure time 60 min"}, "[13]": {"settings": "dilution rate 1:400, exposure time 10 min"}, "[14]": {"settings": "dilution rate 1:400, exposure time 20 min"}, "[15]": {"settings": "dilution rate 1:400, exposure time 40 min"}, "[16]": {"settings": "dilution rate 1:400, exposure time 60 min"}, "[17]": {"settings": "dilution rate 1:800, exposure time 10 min"}, "[18]": {"settings": "dilution rate 1:800, exposure time 20 min"}, "[19]": {"settings": "dilution rate 1:800, exposure time 40 min"}, "[20]": {"settings": "dilution rate 1:800, exposure time 60 min"}}, "note": "At least one compound was matched to its structure with a doubt left."}
{"smiles": "NC(=O)N/N=C/c1ccc([N+](=O)[O-])o1", "note": "[Furacilin]", "values": [{"measurement": "antimicrobial activity, St. Aereus", "setting": "[1]; [5]", "result": "−"}, {"measurement": "antimicrobial activity, St. Aereus", "setting": "[1]; [6]", "result": "−"}, {"measurement": "antimicrobial activity, St. Aereus", "setting": "[1]; [7]", "result": "−"}, {"measurement": "antimicrobial activity, St. Aereus", "setting": "[1]; [8]", "result": "−"}, {"measurement": "antimicrobial activity, St. Aereus", "setting": "[1]; [9]", "result": "+"}, {"measurement": "antimicrobial activity, St. Aereus", "setting": "[1]; [10]", "result": "+"}, {"measurement": "antimicrobial activity, St. Aereus", "setting": "[1]; [11]", "result": "+"}, {"measurement": "antimicrobial activity, St. Aereus", "setting": "[1]; [12]", "result": "+"}, {"measurement": "antimicrobial activity, St. Aereus", "setting": "[1]; [13]", "result": "+"}, {"measurement": "antimicrobial activity, St. Aereus", "setting": "[1]; [14]", "result": "+"}, {"measurement": "antimicrobial activity, St. Aereus", "setting": "[1]; [15]", "result": "+"}, {"measurement": "antimicrobial activity, St. Aereus", "setting": "[1]; [16]", "result": "+"}, {"measurement": "antimicrobial activity, St. Aereus", "setting": "[1]; [17]", "result": "+"}, {"measurement": "antimicrobial activity, St. Aereus", "setting": "[1]; [18]", "result": "+"}, {"measurement": "antimicrobial activity, St. Aereus", "setting": "[1]; [19]", "result": "+"}, {"measurement": "antimicrobial activity, St. Aereus", "setting": "[1]; [20]", "result": "+"}, {"measurement": "antimicrobial activity, Ps. aeruginosa", "setting": "[2]; [5]", "result": "+"}, {"measurement": "antimicrobial activity, Ps. aeruginosa", "setting": "[2]; [6]", "result": "+"}, {"measurement": "antimicrobial activity, Ps. aeruginosa", "setting": "[2]; [7]", "result": "+"}, {"measurement": "antimicrobial activity, Ps. aeruginosa", "setting": "[2]; [8]", "result": "+"}, {"measurement": "antimicrobial activity, Ps. aeruginosa", "setting": "[2]; [9]", "result": "+"}, {"measurement": "antimicrobial activity, Ps. aeruginosa", "setting": "[2]; [10]", "result": "+"}, {"measurement": "antimicrobial activity, Ps. aeruginosa", "setting": "[2]; [11]", "result": "+"}, {"measurement": "antimicrobial activity, Ps. aeruginosa", "setting": "[2]; [12]", "result": "+"}, {"measurement": "antimicrobial activity, Ps. aeruginosa", "setting": "[2]; [13]", "result": "+"}, {"measurement": "antimicrobial activity, Ps. aeruginosa", "setting": "[2]; [14]", "result": "+"}, {"measurement": "antimicrobial activity, Ps. aeruginosa", "setting": "[2]; [15]", "result": "+"}, {"measurement": "antimicrobial activity, Ps. aeruginosa", "setting": "[2]; [16]", "result": "+"}, {"measurement": "antimicrobial activity, Ps. aeruginosa", "setting": "[2]; [17]", "result": "+"}, {"measurement": "antimicrobial activity, Ps. aeruginosa", "setting": "[2]; [18]", "result": "+"}, {"measurement": "antimicrobial activity, Ps. aeruginosa", "setting": "[2]; [19]", "result": "+"}, {"measurement": "antimicrobial activity, Ps. aeruginosa", "setting": "[2]; [20]", "result": "+"}, {"measurement": "antimicrobial activity, Candida albicans", "setting": "[3]; [5]", "result": "−"}, {"measurement": "antimicrobial activity, Candida albicans", "setting": "[3]; [6]", "result": "−"}, {"measurement": "antimicrobial activity, Candida albicans", "setting": "[3]; [7]", "result": "+"}, {"measurement": "antimicrobial activity, Candida albicans", "setting": "[3]; [8]", "result": "+"}, {"measurement": "antimicrobial activity, Candida albicans", "setting": "[3]; [9]", "result": "+"}, {"measurement": "antimicrobial activity, Candida albicans", "setting": "[3]; [10]", "result": "+"}, {"measurement": "antimicrobial activity, Candida albicans", "setting": "[3]; [11]", "result": "+"}, {"measurement": "antimicrobial activity, Candida albicans", "setting": "[3]; [12]", "result": "+"}, {"measurement": "antimicrobial activity, Candida albicans", "setting": "[3]; [13]", "result": "+"}, {"measurement": "antimicrobial activity, Candida albicans", "setting": "[3]; [14]", "result": "+"}, {"measurement": "antimicrobial activity, Candida albicans", "setting": "[3]; [15]", "result": "+"}, {"measurement": "antimicrobial activity, Candida albicans", "setting": "[3]; [16]", "result": "+"}, {"measurement": "antimicrobial activity, Candida albicans", "setting": "[3]; [17]", "result": "+"}, {"measurement": "antimicrobial activity, Candida albicans", "setting": "[3]; [18]", "result": "+"}, {"measurement": "antimicrobial activity, Candida albicans", "setting": "[3]; [19]", "result": "+"}, {"measurement": "antimicrobial activity, Candida albicans", "setting": "[3]; [20]", "result": "+"}, {"measurement": "antimicrobial activity, E. Coli", "setting": "[4]; [5]", "result": "−"}, {"measurement": "antimicrobial activity, E. Coli", "setting": "[4]; [6]", "result": "−"}, {"measurement": "antimicrobial activity, E. Coli", "setting": "[4]; [7]", "result": "−"}, {"measurement": "antimicrobial activity, E. Coli", "setting": "[4]; [8]", "result": "−"}, {"measurement": "antimicrobial activity, E. Coli", "setting": "[4]; [9]", "result": "+"}, {"measurement": "antimicrobial activity, E. Coli", "setting": "[4]; [10]", "result": "+"}, {"measurement": "antimicrobial activity, E. Coli", "setting": "[4]; [11]", "result": "+"}, {"measurement": "antimicrobial activity, E. Coli", "setting": "[4]; [12]", "result": "+"}, {"measurement": "antimicrobial activity, E. Coli", "setting": "[4]; [13]", "result": "+"}, {"measurement": "antimicrobial activity, E. Coli", "setting": "[4]; [14]", "result": "+"}, {"measurement": "antimicrobial activity, E. Coli", "setting": "[4]; [15]", "result": "+"}, {"measurement": "antimicrobial activity, E. Coli", "setting": "[4]; [16]", "result": "+"}, {"measurement": "antimicrobial activity, E. Coli", "setting": "[4]; [17]", "result": "+"}, {"measurement": "antimicrobial activity, E. Coli", "setting": "[4]; [18]", "result": "+"}, {"measurement": "antimicrobial activity, E. Coli", "setting": "[4]; [19]", "result": "+"}, {"measurement": "antimicrobial activity, E. Coli", "setting": "[4]; [20]", "result": "+"}]}
